Taken from: PubChem BioAssay AID1259425 (University of Nebraska Medical Center, 2018)

- Test: 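Seek colon cancer weak points whose silencing resembles KSR1 loss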 (primary screen)
- Cell system: HCT116 human colon cancer cells
- Reagent: siRNA pool against human genes, 50 nM siRNA
- Measurement: 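mRNA of six signature genes measured together by branched-DNA assay after 50 nM siRNA pool, blank removed, divided by geometric mean of two housekeeping genes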
- Reading the numbers: BNIP3L mRNA: higher = more BNIP3L transcript after knockdown; NDRG1 mRNA: higher = more NDRG1 transcript after knockdown; BNIP3 mRNA: higher = more BNIP3 transcript after knockdown; ALDOC mRNA: higher = more ALDOC transcript after knockdown; ACSL5 mRNA: higher = more ACSL5 transcript after knockdown
The deposit covers about 14,000 reagents; shown is a random part of them. No sequences are given here. Not stated in the record: the time to read-out.

gene	BNIP3L mRNA, set 1	NDRG1 mRNA, set 1	BNIP3 mRNA, set 1	ALDOC mRNA, set 1	ACSL5 mRNA, set 1
ADAM12	0.0873	0.105	0.262	0.0357	0.107
ACP3	0.0543	0.144	0.245	0.0259	0.166
CCN5	0.0486	0.308	0.256	0.0096	0.177
ST6GALNAC4	0.0981	0.132	0.2	0.0107	0.26
RWDD1	0.158	0.0897	0.478	0.0309	0.143
ARHGAP29	0.0714	0.356	0.245	0.0185	0.0976
PXMP2	0.0938	0.208	0.449	0.00987	0.215
NOTCH3	0.103	0.159	0.295	0.0226	0.0976
GPHN	0.0835	0.117	0.205	0.0145	0.12
FAM194C	0.191	0.256	0.246	0.0601	0.47
KCNK5	0.112	0.217	0.391	0.0365	0.282
HBS1L	0.0442	0.0615	0.283	0.0269	0.304
DYNLL2	0.0664	0.264	0.365	0.045	0.301
HOXA10	0.199	0.182	0.382	0.0122	0.105
RPS15	0.058	0.238	0.395	0.0123	0.141
WFDC2	0.132	0.112	0.395	0.0576	0.0402
CSRNP1	0.108	0.202	0.303	0.0433	0.259
FTCD	0.0918	0.124	0.187	0.0143	0.087
PDE6H	0.0969	0.441	0.325	0.017	0.0645
ST6GAL1	0.125	0.175	0.131	0.0163	0.279
HLA-DQB2	0.082	0.0651	0.188	0.0337	0.104
STX3	0.134	0.134	0.413	0.0229	0.0988
DDX20	0.112	0.161	0.241	0.0159	0.129
OSBPL1A	0.0678	0.0675	0.187	0.0205	0.0916
UBQLN4	0.106	0.444	0.216	0.0843	0.573
OR2J2	0.211	0.211	0.364	0.0568	0.255
GANAB	0.0929	0.337	0.249	0.0187	0.213
SKIC3	0.191	0.0947	0.251	0.0287	0.0975
IPO8	0.0935	0.349	0.335	0.0262	0.248
GRM1	0.103	0.151	0.303	0.0211	0.124
ATP13A2	0.0844	0.306	0.322	0.0179	0.235
TRMT6	0.163	0.134	0.351	0.0338	0.144
RPS19	0.133	0.0781	0.294	0.0122	0.0706
MAP3K6	0.116	0.138	0.284	0.00943	0.309
PSMD5	0.108	0.23	0.356	0.0139	0.0903
STRN4	0.176	0.372	0.206	0.0356	0.153
HSD11B2	0.1	0.308	0.232	0.0196	0.191
UBE2G1	0.0903	0.071	0.278	0.00967	0.0679
ATRAID	0.206	0.298	0.442	0.0194	0.294
REPS1	0.131	0.185	0.259	0.0336	0.0872
C8orf33	2.39	1.75	1.51	1.55	1.1
ELOF1	0.211	0.253	0.291	0.175	0.416
TEX13A	0.2	0.407	0.506	0.057	0.565
PEBP1	0.0946	0.0767	0.225	0.0204	0.0776
NAA16	0.136	0.266	0.554	0.0358	0.217
DHH	0.101	0.142	0.334	0.0137	0.204
ARHGEF15	0.0821	0.0957	0.354	0.0217	0.0993
OR2A4	0.138	0.157	0.43	0.0414	0.117
SH3YL1	0.121	0.197	0.218	0.0246	0.198
PLXNB3	0.0695	0.119	0.395	0.03	0.149

Reformatted: results already given
{"gene":"ST6GAL1","BNIP3L mRNA, set 1":0.125,"NDRG1 mRNA, set 1":0.175,"BNIP3 mRNA, set 1":0.131,"ALDOC mRNA, set 1":0.0163,"ACSL5 mRNA, set 1":0.279}
{"gene":"HLA-DQB2","BNIP3L mRNA, set 1":0.082,"NDRG1 mRNA, set 1":0.0651,"BNIP3 mRNA, set 1":0.188,"ALDOC mRNA, set 1":0.0337,"ACSL5 mRNA, set 1":0.104}
{"gene":"STX3","BNIP3L mRNA, set 1":0.134,"NDRG1 mRNA, set 1":0.134,"BNIP3 mRNA, set 1":0.413,"ALDOC mRNA, set 1":0.0229,"ACSL5 mRNA, set 1":0.0988}
{"gene":"DDX20","BNIP3L mRNA, set 1":0.112,"NDRG1 mRNA, set 1":0.161,"BNIP3 mRNA, set 1":0.241,"ALDOC mRNA, set 1":0.0159,"ACSL5 mRNA, set 1":0.129}
{"gene":"OSBPL1A","BNIP3L mRNA, set 1":0.0678,"NDRG1 mRNA, set 1":0.0675,"BNIP3 mRNA, set 1":0.187,"ALDOC mRNA, set 1":0.0205,"ACSL5 mRNA, set 1":0.0916}
{"gene":"UBQLN4","BNIP3L mRNA, set 1":0.106,"NDRG1 mRNA, set 1":0.444,"BNIP3 mRNA, set 1":0.216,"ALDOC mRNA, set 1":0.0843,"ACSL5 mRNA, set 1":0.573}
{"gene":"OR2J2","BNIP3L mRNA, set 1":0.211,"NDRG1 mRNA, set 1":0.211,"BNIP3 mRNA, set 1":0.364,"ALDOC mRNA, set 1":0.0568,"ACSL5 mRNA, set 1":0.255}
